Data published in article PMC10993572.
No constants are given. Whether binding was seen depends on the method and setting. In cells and extracts the contact can be indirect. A yes stands for co-enrichment or nearness to the bait. Other partners may have been found.

Chains of the proteins cited; added tags and fusions are not shown. Residues count along the entry.
UniProt P05121, residues 24-402: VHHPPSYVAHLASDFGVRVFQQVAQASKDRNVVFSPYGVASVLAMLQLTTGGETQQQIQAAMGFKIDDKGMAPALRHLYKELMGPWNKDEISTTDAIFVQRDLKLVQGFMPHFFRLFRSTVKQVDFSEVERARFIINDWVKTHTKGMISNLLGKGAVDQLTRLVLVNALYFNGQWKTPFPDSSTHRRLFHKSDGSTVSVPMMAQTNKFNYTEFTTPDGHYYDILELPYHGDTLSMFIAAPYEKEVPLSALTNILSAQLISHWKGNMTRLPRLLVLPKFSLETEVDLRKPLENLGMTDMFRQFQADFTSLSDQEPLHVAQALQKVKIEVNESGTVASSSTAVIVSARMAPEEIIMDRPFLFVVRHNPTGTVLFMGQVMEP
UniProt Q04206: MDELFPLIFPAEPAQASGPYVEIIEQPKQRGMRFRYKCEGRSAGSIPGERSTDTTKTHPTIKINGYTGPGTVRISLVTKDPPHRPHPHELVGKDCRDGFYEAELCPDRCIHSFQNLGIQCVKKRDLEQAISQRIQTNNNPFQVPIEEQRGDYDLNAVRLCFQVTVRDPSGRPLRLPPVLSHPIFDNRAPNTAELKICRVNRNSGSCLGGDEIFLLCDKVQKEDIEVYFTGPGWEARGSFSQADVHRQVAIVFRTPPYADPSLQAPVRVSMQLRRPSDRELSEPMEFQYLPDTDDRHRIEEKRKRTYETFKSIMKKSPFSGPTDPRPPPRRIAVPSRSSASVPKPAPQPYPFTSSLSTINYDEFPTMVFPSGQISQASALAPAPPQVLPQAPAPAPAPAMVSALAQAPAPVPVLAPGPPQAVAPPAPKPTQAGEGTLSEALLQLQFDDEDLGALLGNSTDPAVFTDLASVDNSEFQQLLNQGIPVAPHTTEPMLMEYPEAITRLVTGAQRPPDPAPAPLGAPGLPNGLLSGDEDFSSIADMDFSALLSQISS

Biological target: GFP-SERPINE1 (serpin family E member 1 tagged with GFP) (UniProt P05121)
Experiment: affinity purification with mass spectrometry; GFP-SERPINE1 or GFP-Mock plasmids transfected into 293T cells; whole cell lysates immunoprecipitated with anti-GFP antibody, Protein A/G magnetic beads, washed with PBST (0.5% Triton X-100); complexes analysed by LC-MS/MS

Substance: NF-κB p65, endogenous in 293T cells (from UniProt Q04206 1-551)
- binding: binds
